Article PMC6817462
These are yes or no findings as the source states them, for the method shown. Binding seen in cells or lysates may run through a third protein.

Amino acid sequences for entries named in this document (tags omitted).
UniProt P40763: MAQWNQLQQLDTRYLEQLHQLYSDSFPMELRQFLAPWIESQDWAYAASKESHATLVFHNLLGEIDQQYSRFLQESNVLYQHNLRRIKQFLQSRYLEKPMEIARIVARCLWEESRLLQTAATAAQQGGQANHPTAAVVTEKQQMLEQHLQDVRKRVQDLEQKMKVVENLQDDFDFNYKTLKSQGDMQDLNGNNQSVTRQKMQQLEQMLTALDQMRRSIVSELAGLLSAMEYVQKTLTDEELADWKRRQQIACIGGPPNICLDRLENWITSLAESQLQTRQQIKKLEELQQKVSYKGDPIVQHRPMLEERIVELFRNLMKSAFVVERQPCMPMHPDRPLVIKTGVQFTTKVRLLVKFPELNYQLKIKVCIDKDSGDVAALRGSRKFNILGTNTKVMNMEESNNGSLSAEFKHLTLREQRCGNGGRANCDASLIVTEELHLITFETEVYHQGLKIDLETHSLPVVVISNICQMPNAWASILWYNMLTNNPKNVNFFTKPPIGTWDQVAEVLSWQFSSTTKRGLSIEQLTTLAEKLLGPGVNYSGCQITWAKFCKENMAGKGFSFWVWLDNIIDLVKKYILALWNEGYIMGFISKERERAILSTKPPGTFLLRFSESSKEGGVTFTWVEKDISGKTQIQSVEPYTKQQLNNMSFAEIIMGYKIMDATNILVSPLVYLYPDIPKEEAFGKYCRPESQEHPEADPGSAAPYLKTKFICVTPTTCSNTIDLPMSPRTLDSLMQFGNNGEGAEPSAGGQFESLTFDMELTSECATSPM

Molecular target: STAT3 (UniProt P40763)
Test: co-IP; cells, bait and conditions not told; shown in Supplementary Figure 5

B1: Hepatocyte nuclear factor 3β (protein, UniProt Q9Y261 1-457)
chain: MLGAVKMEGHEPSDWSSYYAEPEGYSSVSNMNAGLGMNGMNTYMSMSAAAMGSGSGNMSAGSMNMSSYVGAGMSPSLAGMSPGAGAMAGMGGSAGAAGVAGMGPHLSPSLSPLGGQAAGAMGGLAPYANMNSMSPMYGQAGLSRARDPKTYRRSYTHAKPPYSYISLITMAIQQSPNKMLTLSEIYQWIMDLFPFYRQNQQRWQNSIRHSLSFNDCFLKVPRSPDKPGKGSFWTLHPDSGNMFENGCYLRRQKRFKCEKQLALKEAAGAAGSGKKAAAGAQASQAQLGEAAGPASETPAGTESPHSSASPCQEHKRGGLGELKGTPAAALSPPEPAPSPGQQQQAAAHLLGPPHHPGLPPEAHLKPEHHYAFNHPFSINNLMSSEQQHHHSHHHHQPHKMDLKAYEQVMHYPGYGSPMPGSLAMGPVTNKTGLDASPLAADTSYYQGVYSRPIMNSS
B1 was tested, and the binding was “no binding”.
